Test results from PubChem BioAssay AID2685 (National Center for Advancing Translational Sciences (NCATS), 2010).
Some of the results follow. The main result of the screen is listed elsewhere. These columns were measured beside it and carry no call. Compounds called inactive in the main read-out are mostly missing here. Words in brackets tell the shape of the fitted curve; partial curves, single points and poor fits give uncertain potencies.

Test: qHTS Assay for Lipid Storage Modulators in Drosophila S3 Cells;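 for cell number change: cells counted by Cell Tracker Red CMTPX staining in the red channel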
Conditions: BODIPY lipid droplet fluorescence, 18-24 h; for cell number change: measured here: cell count max response, cells fed with added oleic acid
Outline: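 Laser-scanning cytometry quantifies lipid droplet accumulation (500–530 nm total intensity; droplet/cell object ratio) in oleic acid-fed (400 uM added) Drosophila S3 cells treated with a concentration series. 20 uM Triacsin C defined 100% inhibition.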

[1] = measured here: cell number channel AC50, cells fed with added oleic acid
[2] = measured here: lipid fluorescence (Fed channel) AC50, cells fed with added oleic acid

For `COc1ccc(NC(=O)C2CCCN(c3nn4c(=O)cc(C)nc4s3)C2)c(OC)c1` (configuration not stated), the AC50 [1] was 5800 nM [falling, single point].
For `O=C(Nc1ccc(OC(F)(F)F)cc1)c1cnccn1`, the cell number change was -28.8% and the AC50 [2] was 6510 nM [rising, single point].
In the case of `O=C(Cn1c(=O)[nH]c2ccsc2c1=O)N1CCN(c2ccc(F)cc2)CC1`, the cell number change is reported as 36.1% and the AC50 [2] is reported as 29100 nM [rising, single point].
`Cc1cccc(N(C(=O)c2snc(C(N)=O)c2N)C(C(=O)NCC2CCCO2)c2ccc(N(C)C)cc2)c1C` (configuration not stated) gave a cell number change of 24.8%.
In the case of `Cc1ccc(F)cc1NC(=O)C1CCN(c2cnccn2)CC1`, the cell number change is reported as 4.15% and the AC50 [1] is reported as 5.8 nM [rising, full curve, poor fit].
With `CN(C)S(=O)(=O)c1cccc(NC(=O)c2cc(=O)[nH]c(=O)[nH]2)c1` the cell number change was 53.5% and the AC50 [1] was 29100 nM [rising, single point].
In the case of `Cc1ccc(NC(=O)C2CCN(S(=O)(=O)c3cnc[nH]3)CC2)nc1`, the cell number change is reported as -3.85% and the AC50 [1] is reported as 731 nM [falling, single point].
For `O=C(NCC(=O)N(CC1CCCO1)C(C(=O)NC1CCCC1)c1cccnc1)c1ccco1` (configuration not stated), the AC50 [1] was 2310 nM [rising, single point].
For `CC(=O)c1c(C)nc2ccccc2c1N`, the cell number change was -10.8%, the AC50 [1] was 731 nM [falling, full curve] and the AC50 [2] was 3260 nM [falling, full curve].
In the case of `COc1ccccc1-n1cc(-c2ccc(C)cc2)[nH]c1=S`, the cell number change is reported as 8.45% and the AC50 [2] is reported as 2590 nM [rising, single point].
For `Cc1ccsc1C(=O)N(Cc1nnc(-c2ccccc2Cl)o1)C1CC1`, the cell number change was 34.5% and the AC50 [1] was 517 nM [rising, full curve, poor fit].
In the case of `COc1ccc(C(=O)CC(=O)Nc2ccc([N+](=O)[O-])cc2)cc1`, the cell number change is reported as -18.9% and the AC50 [2] is reported as 11600 nM [rising, partial curve].
With `C=CCNC(=O)c1onc(CSc2ccc(F)cc2)c1C(=O)NCCOC` the cell number change was -14.7% and the AC50 [2] was 731 nM [falling, single point].
Work on `O=C(COC(=O)c1ccc(Br)o1)NC1CCCCC1` yielded a cell number change of 6.66%.
With `COC(=O)c1sc(N)c(C(=O)OC)c1COC(=O)CCNS(=O)(=O)c1ccc(C)cc1` the cell number change was 4.03%, the AC50 [1] was 51.7 nM [rising, full curve, poor fit] and the AC50 [2] was 58 nM [rising, full curve].
With `O=C(NNS(=O)(=O)c1ccc(F)cc1)c1cnccn1` the cell number change was -14.9% and the AC50 [2] was 580 nM [rising, single point].
In the case of `COc1c(Cl)cccc1-c1cn2ccccc2n1`, the cell number change is reported as 23.6% and the AC50 [2] is reported as 461 nM [rising, full curve, poor fit].
In the case of `O=C(CN1C(=O)NC(c2ccccc2)(c2ccccc2)C1=O)N1CCOCC1`, the cell number change is reported as 5.1% and the AC50 [2] is reported as 6510 nM [falling, single point].
For `COc1ccc(OC)c(NC(=O)/C=C/c2ccc(S(=O)(=O)N3CCOCC3)cc2)c1`, the cell number change was 2.81%.
In the case of `CCOc1ccccc1/C=N/NC(=O)C[n+]1ccccc1`, the cell number change is reported as 1.3%, the AC50 [1] is reported as 116 nM [falling, full curve, poor fit] and the AC50 [2] is reported as 146 nM [falling, full curve, poor fit].
In the case of `COc1ccccc1CNC(=O)CCNC(=O)Cn1cnc2ccccc2c1=O`, the cell number change is reported as -44.6%, the AC50 [1] is reported as 58 nM [falling, full curve] and the AC50 [2] is reported as 16400 nM [falling, partial curve, poor fit].
For `O=C(Nc1ccc2c(c1)OCO2)C1CCN(c2ccc(S(=O)(=O)N3CCOCC3)cc2)CC1`, the cell number change was 5.4% and the AC50 [2] was 6510 nM [rising, partial curve].
In the case of `N#C/C(=C\c1ccc(Cl)cc1Cl)c1n[nH]c(Cn2cncn2)n1`, the cell number change is reported as -23.8% and the AC50 [2] is reported as 6510 nM [rising, single point].
For `COc1nccnc1NS(=O)(=O)c1ccc(NCc2cc(Br)ccc2O)cc1`, the cell number change was 15.3% and the AC50 [2] was 29100 nM [rising, single point].
In the case of `Cc1ncc(N=Nc2ccc(F)cc2)c(-c2ccc(Cl)cc2)n1`, the AC50 [1] is reported as 3260 nM [falling, partial curve].
In the case of `CSc1ccccc1NC(=O)CSCc1nc2sc(C)c(C)c2c(=O)[nH]1`, the cell number change is reported as 6.02%.
In the case of `CC(C)N(c1ccccc1)c1ccc(NC(=O)CCl)cc1`, the cell number change is reported as -43.9% and the AC50 [1] is reported as 1300 nM [rising, full curve].
For `CC(=O)N(Cc1ccccc1)c1ccc(C(=O)O)cc1`, the cell number change was -33.2% and the AC50 [2] was 651 nM [falling, full curve].
For `Cc1nnc(SCC(=O)Nc2ccc3[nH]c(=O)[nH]c3c2)s1`, the cell number change was -35% and the AC50 [1] was 1640 nM [falling, full curve].
In the case of `Cc1csc(CNc2ncnc3ccc(-c4ccco4)cc23)c1`, the cell number change is reported as -0.451%, the AC50 [1] is reported as 164 nM [falling, full curve, poor fit] and the AC50 [2] is reported as 130 nM [falling, full curve, poor fit].
With `Cc1ccc(/C=C(\C#N)C(=O)Nc2ccccn2)o1` the cell number change was 13.1% and the AC50 [2] was 6510 nM [falling, single point].
With `CCN(CC)CCNC(=O)c1ccc(NC(=O)c2cccc(S(=O)(=O)N3c4ccccc4CC3C)c2)cc1` (configuration not stated) the cell number change was 14.6%.
For `Cc1cnc(C(=O)Nc2ccccc2-c2ccc(C)o2)cn1`, the cell number change was 24.8% and the AC50 [1] was 2310 nM [rising, full curve, poor fit].
For `C=Cn1c(C(=O)O)cc(CC)c1-c1ccccc1`, the AC50 [1] was 6510 nM [rising, single point].
For `Cc1ccc(C)c(S(=O)(=O)N2CCN(CC(=O)Nc3cc(C)on3)CC2)c1`, the AC50 [1] was 1460 nM [rising, partial curve] and the AC50 [2] was 164 nM [rising, full curve, poor fit].
For `O=C(COc1ccc2c(c1)CCC2)N1CCN(c2ccccc2F)CC1`, the cell number change was 27.1% and the AC50 [2] was 259 nM [falling, partial curve, poor fit].
In the case of `CCN(CC(=O)NC(C)C)C(=O)C(CCSC)NC(=O)c1ccccc1OC` (configuration not stated), the cell number change is reported as 11.8%, the AC50 [1] is reported as 92 nM [falling, full curve] and the AC50 [2] is reported as 92 nM [falling, full curve, poor fit].
For `COc1ccc(-c2ccc(C(=O)O)c(=O)[nH]2)cc1`, the AC50 [1] was 651 nM [falling, single point] and the AC50 [2] was 580 nM [falling, single point].
For `COc1cc(/C=N/NC(=O)C(N)=O)ccc1OCC(=O)N1C(C)CCCC1C` (configuration not stated), the cell number change was 21.4% and the AC50 [2] was 5.17 nM [rising, full curve, poor fit].
With `CCC(Oc1ccc(C)c(C)c1)C(=O)O` (configuration not stated) the cell number change was -26.8%, the AC50 [1] was 820 nM [falling, full curve, poor fit] and the AC50 [2] was 3660 nM [falling, full curve].
Compound `CCN(C(=O)COC(=O)c1n[nH]c2ccccc12)c1ccccc1` has a cell number change of -5.32%.
With `C=CCNC(=O)CN(c1ccc(F)cc1)S(=O)(=O)c1ccc(OC)cc1` the cell number change was 4.73% and the AC50 [2] was 3660 nM [rising, single point].
In the case of `COc1ccc(CNC(=O)COC(=O)CCS(=O)(=O)c2ccc(C)cc2)cc1OC`, the cell number change is reported as 8%.
In the case of `N#Cc1cc2c(nc1SCC(O)CS(=O)(=O)Cc1ccc(Cl)cc1)CCCC2` (configuration not stated), the cell number change is reported as -13.9% and the AC50 [2] is reported as 580 nM [rising, full curve].
In the case of `Cc1ccc(C)c(OCC(=O)OCC(=O)Nc2c(C)nn(-c3ccccc3)c2C)c1`, the cell number change is reported as 8%.
In the case of `CCCSc1ncccc1C(=O)O`, the cell number change is reported as 3.96%, the AC50 [1] is reported as 4110 nM [falling, single point] and the AC50 [2] is reported as 2910 nM [falling, partial curve, poor fit].
In the case of `COc1ccc(N2CCN(C(=O)COC(=O)c3ccc(C)o3)CC2)cc1`, the cell number change is reported as 2.36% and the AC50 [1] is reported as 651 nM [falling, full curve, poor fit].
For `O=C(NCC1(N2CCOCC2)CCCCC1)c1cccc(S(=O)(=O)N2CCc3ccccc3C2)c1`, the AC50 [1] was 5.17 nM [rising, full curve, poor fit] and the AC50 [2] was 4.61 nM [rising, full curve, poor fit].
With `CC1(C)CC(=O)/C(=C\c2cccc([N+](=O)[O-])c2)C(C)(C)N1` the cell number change was -30.6%, the AC50 [1] was 23100 nM [falling, partial curve] and the AC50 [2] was 6510 nM [falling, full curve, poor fit].
With `Cc1cccc(NC(=O)CSCc2nc3c(nnn3Cc3ccc(F)cc3)c(=O)[nH]2)c1C` the cell number change was -26% and the AC50 [2] was 16400 nM [falling, single point].
For `O=C(c1ccc(Cl)cc1)c1cnc(-c2ccc(Cl)cc2)s1`, the cell number change was 19% and the AC50 [1] was 7310 nM [rising, partial curve, poor fit].
`COc1ccccc1NC(=O)c1ccc(NC(=O)CNC(=O)c2ccc(OC)c(OC)c2)cc1` gave a cell number change of -1.9%.
In the case of `CC1(C)Cc2c(cnn2-c2ccc(F)cc2)C(NC(=O)c2ccc(=O)oc2)C1` (configuration not stated), the cell number change is reported as -5.2% and the AC50 [2] is reported as 1640 nM [falling, single point].
In the case of `O=C(NC1CCCCC1)C(c1ccccc1)N1CCC2(CC1)OCCO2` (configuration not stated), the cell number change is reported as 4.46% and the AC50 [2] is reported as 29100 nM [rising, single point].
In the case of `O=C(c1ccc(COc2ccccc2Br)cc1)N1CCCCCC1`, the cell number change is reported as -39.7% and the AC50 [1] is reported as 29100 nM [falling, single point].
In the case of `O=c1[nH]nc(Cc2ccc(-c3ccc(Cl)cc3)o2)c2ccccc12`, the cell number change is reported as -13% and the AC50 [2] is reported as 29100 nM [falling, single point].
For `O=C(CNC(=O)c1ccc(Br)o1)NC12CC3CC(CC(C3)C1)C2`, the cell number change was 25.4% and the AC50 [2] was 29100 nM [rising, single point].
In the case of `CCN(CC)C(=O)c1sc(NC(=O)c2ccc(Br)o2)c(C(=O)OC)c1C`, the cell number change is reported as 54.4%, the AC50 [1] is reported as 146 nM [rising, full curve, poor fit] and the AC50 [2] is reported as 1840 nM [rising, partial curve].
For `O=C(NC1CC1)C1CCN(c2nc3ccccc3s2)CC1`, the cell number change was 19.7%.
In the case of `CCCNC(=O)c1ccc2c(=O)c(O)c(-c3cccc(Br)c3)[nH]c2c1`, the cell number change is reported as -38.1%, the AC50 [1] is reported as 16400 nM [falling, partial curve] and the AC50 [2] is reported as 16400 nM [falling, partial curve].
